# Assay results taken from publication PMC5773591, “Structural basis of trans-synaptic interactions between PTPδ and SALMs for inducing synapse formation” (Nature Communications, 2018).
# These are yes or no findings as the source states them, for the method shown. Where a sequence is shown, tags or fusion partners need not be part of it.
# Tests used:
# [1] = target: human SALM5 LRR–Ig-His6 N158A (human) (UniProt Q96NI6); test: SEC-MALS; SALM LRR–Ig proteins at 0.5 g/L on ENrich SEC 650 in 20 mM Tris-HCl (pH 7.4), 250 mM NaCl; dimer of monomers; both purified
# [2] = target: human SALM5 LRR–Ig-His6 Q134N (human) (UniProt Q96NI6); test: as above
binding [1],binding [2],Binder
no binding (tested: 0.5 g L^−1),,"human SALM5 LRR–Ig-His6 N158A (domain or fragment, UniProt Q96NI6 18-378) QICPKRCVCQILSPNLATLCAKKGLLFVPPNIDRRTVELRLADNFVTNIKRKDFANMTSLVDLTLSRNTISFITPHAFADLRNLRALHLNSNRLTKITNDMFSGLSNLHHLILNNNQLTLISSTAFDDVFALEELDLSYNALETIPWDAVEKMVSLHTLSLDHNMIDNIPKGTFSHLHKMTRLDVTSNKLQKLPPDPLFQRAQVLATSGIISPSTFALSFGGNPLHCNCELLWLRRLSREDDLETCASPPLLTGRYFWSIPEEEFLCEPPLITRHTHEMRVLEGQRATLRCKARGDPEPAIHWISPEGKLISNATRSLVYDNGTLDILITTVKDTGAFTCIASNPAGEATQIVDLHIIKLP"
,no binding (tested: 0.5 g L^−1),"human SALM5 LRR–Ig-His6 Q134N (domain or fragment, UniProt Q96NI6 18-378) QICPKRCVCQILSPNLATLCAKKGLLFVPPNIDRRTVELRLADNFVTNIKRKDFANMTSLVDLTLSRNTISFITPHAFADLRNLRALHLNSNRLTKITNDMFSGLSNLHHLILNNNNLTLISSTAFDDVFALEELDLSYNNLETIPWDAVEKMVSLHTLSLDHNMIDNIPKGTFSHLHKMTRLDVTSNKLQKLPPDPLFQRAQVLATSGIISPSTFALSFGGNPLHCNCELLWLRRLSREDDLETCASPPLLTGRYFWSIPEEEFLCEPPLITRHTHEMRVLEGQRATLRCKARGDPEPAIHWISPEGKLISNATRSLVYDNGTLDILITTVKDTGAFTCIASNPAGEATQIVDLHIIKLP"
